{
  "sequences": {"note": "Chains of the proteins cited; added tags and fusions are not shown. Lines headed by an entry give the natural chain unless they say otherwise; changes in a name come on top. Residues count along the entry.", "UniProt P01833, 19-638, stated change not applied": "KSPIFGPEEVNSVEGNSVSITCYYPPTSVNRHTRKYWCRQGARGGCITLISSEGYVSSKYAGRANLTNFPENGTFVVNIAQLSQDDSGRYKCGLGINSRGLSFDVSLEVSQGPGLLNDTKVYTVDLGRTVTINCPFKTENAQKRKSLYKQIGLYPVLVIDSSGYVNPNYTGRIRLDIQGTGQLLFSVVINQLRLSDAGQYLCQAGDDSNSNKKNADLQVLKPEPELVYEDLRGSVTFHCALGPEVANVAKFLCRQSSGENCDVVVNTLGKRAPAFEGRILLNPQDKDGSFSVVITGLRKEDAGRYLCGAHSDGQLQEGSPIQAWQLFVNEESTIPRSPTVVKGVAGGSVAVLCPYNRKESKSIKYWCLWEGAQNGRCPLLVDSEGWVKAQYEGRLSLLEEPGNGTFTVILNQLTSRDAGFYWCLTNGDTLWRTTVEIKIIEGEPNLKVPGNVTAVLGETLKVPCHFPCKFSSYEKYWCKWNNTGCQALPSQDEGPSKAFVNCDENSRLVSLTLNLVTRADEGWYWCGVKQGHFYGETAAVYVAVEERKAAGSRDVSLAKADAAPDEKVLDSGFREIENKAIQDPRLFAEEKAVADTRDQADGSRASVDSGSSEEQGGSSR"},
  "source": "paper PMC6561548",
  "molecular_target": "Recombinant Human Polymeric Immunoglobulin Receptor/PIgR (C-Fc) CI09 protein (human) (UniProt P01833)",
  "assay": "co-IP; only the target purified",
  "note": "No constants are given. Whether binding was seen depends on the method and setting. Binding seen in cells or lysates may run through a third protein. Binding can be weak; no strength is given.",
  "data": [
    {"substance": "Slp encoded on plasmid pUC18::slp in the complemented strain O157Δslp-p:slp (from UniProt P37194)", "values": [
      {"measurement": "binding", "result": "binds"}
    ]}
  ]
}
